From publication PMC7349836
No constants are given. Whether binding was seen depends on the method and setting. Binding seen in cells or lysates may run through a third protein. Some entries that bind do so weakly or less than the wild type.

By UniProt entry, the sequences of proteins in these tests, tags left out.
UniProt P11798: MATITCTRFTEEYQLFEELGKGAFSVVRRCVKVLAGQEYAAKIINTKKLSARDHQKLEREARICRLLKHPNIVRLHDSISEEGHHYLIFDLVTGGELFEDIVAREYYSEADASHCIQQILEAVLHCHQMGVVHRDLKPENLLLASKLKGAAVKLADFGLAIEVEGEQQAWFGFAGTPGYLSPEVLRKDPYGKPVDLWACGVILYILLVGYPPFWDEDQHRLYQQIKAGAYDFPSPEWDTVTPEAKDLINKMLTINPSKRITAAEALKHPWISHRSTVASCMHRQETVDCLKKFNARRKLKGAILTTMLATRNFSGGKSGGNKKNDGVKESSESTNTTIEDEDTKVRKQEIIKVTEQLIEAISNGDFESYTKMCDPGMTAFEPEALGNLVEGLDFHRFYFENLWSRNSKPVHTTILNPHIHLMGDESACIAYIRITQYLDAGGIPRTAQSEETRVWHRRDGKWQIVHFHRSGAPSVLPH

Target: Camk2α, endogenous in cultured mouse hippocampal neurons (mouse (endogenous in hippocampal neurons of C57BL6 mice)) (UniProt P11798)
Test: proximity ligation; Duolink in cultured mouse hippocampal neurons with mouse anti-Fbp and rabbit anti-Camk2α; control neurons and 10 s after chemical LTP induction

binding: binds
B1: Fbp2, endogenous in cultured mouse hippocampal neurons (enzyme, UniProt P70695 1-339)
chain: MTDRSPFETDMLTLTRYVMEKGRQAKGTGELTQLLNSMLTAIKAISSAVRKAGLANLYGISGSVNVTGDEVKKLDVLSNSLVINMLQSSYSTCVLVSEENKEAVITAQERRGKYVVCFDPLDGSSNIDCLASIGTIFAIYRKTTEDEPSEKDALQPGRNIVAAGYALYGSATLVALSTGQGVDLFMLDPALGEFVLVEKDVRIKKKGKIFSLNEGYAKYFDAATAEYVQKKKFPEDGSEPYGARYVGSMVADVHRTLVYGGIFMYPANQKSPNGKLRLLYECNPVAYIIEQAGGMATTGTQPVLDVKPESIHQRVPLILGSPEDVQEYLSCVQRNQAGR
